# Data: PubChem BioAssay AID220 (DTP/NCI, 2004)
# The list is a part of this screen's results and no random one: it gathers tests that were run many times, whatever their T/C, doses with no T/C, and many T/C values between a quarter and a half above the control. Other doses and runs of a compound stand elsewhere. T/C gives the treated animals as a percentage of the vehicle group. Schedule codes are those of the source, taken here to give the interval after Q, in days (D) or hours (H), and the number of doses after X. Some T/C values are followed by the survivors on the day toxicity was checked, most often the fifth; without a count, all were alive then. Some doses have a count of surviving animals in place of a T/C: the source holds a T/C of zero for them, seemingly a mark for toxic or unscored doses. Counts of survivors are from the toxicity check (mostly the fifth day) where no day follows; animals may have died later. Some entries were tested several times; the results are listed from low to high.
# Tested on: CD8F1 mice, subcutaneous mammary adenocarcinoma, T/C%
# Experiment: NCI In Vivo Anticancer Drug Screen. Data for tumor model Mammary Adenocarcinoma CD8F1 (subcutaneous) in CD8F1
# Conditions: higher T/C = larger tumour
# In short: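 Ratio of treated to vehicle-control outcome, based on either survival or tumor size, in mice bearing transplantable tumors given the test compound.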
# [1] = T/C endpoint: median tumor weight (est.), dose: 400.0 mg/kg/injection, schedule: Q07DX005 (ip), vehicle: suspension in saline
# [2] = T/C endpoint: median tumor weight (est.), dose: 16.0 mg/kg/injection, schedule: Q07DX005 (ip), vehicle: saline
smiles,measurement,setting,value
O=C(NO)c1ccccc1,T/C,"T/C endpoint: median tumor weight (est.), dose: 200.0 mg/kg/injection, schedule: Q07DX005 (ip), vehicle: suspension in saline, evaluated on day 30",147 % of control [9 of 10 alive on day 30]
same,survivor count,[1],4 of 10 on day 30
same,survivor count,"T/C endpoint: median tumor weight (est.), dose: 800.0 mg/kg/injection, schedule: Q07DX005 (ip), vehicle: suspension in saline",4 of 10 on day 30
O=CC(=O)c1ccc(O)cc1,survivor count,"T/C endpoint: median tumor weight (est.), dose: 200.0 mg/kg/injection, schedule: Q07DX005 (ip), vehicle: suspension in saline",1 of 10 on day 30
same,survivor count,[1],0 of 10 on day 30
O=C(/C=C(\Cl)C(=O)NO)NO,survivor count,"T/C endpoint: median tumor weight change, dose: 500.0 mg/kg/injection, schedule: Q01DX001 (ip), vehicle: suspension in saline",3 of 10 on day 30
same,survivor count,"T/C endpoint: median tumor weight change, dose: 1000.0 mg/kg/injection, schedule: Q01DX001 (ip), vehicle: suspension in saline",0 of 10 on day 30
COC1/C=C\C=C(/C)C(=O)NC2=CC(=O)C=C(C2=O)C(OC)C(C)CC(OC)C(OC)C(C)/C=C(/C)C1OC(N)=O (stereo not drawn),survivor count,"T/C endpoint: median tumor weight change, dose: 7.5 mg/kg/injection, schedule: Q01DX001 (ip), vehicle: Klucel (hydroxypropylcellulose) (HPC)",0 of 10 on day 31
same,survivor count,"T/C endpoint: median tumor weight change, dose: 15.0 mg/kg/injection, schedule: Q01DX001 (ip), vehicle: Klucel (hydroxypropylcellulose) (HPC)",0 of 10 on day 31
same,survivor count,"T/C endpoint: median tumor weight change, dose: 30.0 mg/kg/injection, schedule: Q01DX001 (ip), vehicle: Klucel (hydroxypropylcellulose) (HPC)",0 of 10 on day 31
Nc1ccc(S(=O)(=O)Nc2cnc3c(Cl)cccc3n2)cc1,T/C,"T/C endpoint: median tumor weight change, dose: 125.0 mg/kg/injection, schedule: Q01DX001 (ip), vehicle: DMSO, evaluated on day 25",133 % of control
same,T/C,"T/C endpoint: median tumor weight change, dose: 250.0 mg/kg/injection, schedule: Q01DX001 (ip), vehicle: DMSO, evaluated on day 29",141 % of control
same,T/C,"T/C endpoint: median tumor weight change, dose: 500.0 mg/kg/injection, schedule: Q01DX001 (ip), vehicle: DMSO, evaluated on day 29",139 % of control
same,survivor count,"T/C endpoint: median tumor weight change, dose: 1000.0 mg/kg/injection, schedule: Q01DX001 (ip), vehicle: DMSO",2 of 10 on day 25
same,survivor count,"T/C endpoint: median tumor weight change, dose: 2000.0 mg/kg/injection, schedule: Q01DX001 (ip), vehicle: DMSO",0 of 10 on day 25 and 0 of 10 on day 29
Nc1ncnc2c1ncn2C1OC(CO)C(O)C1O (stereo not drawn),T/C,"T/C endpoint: median tumor weight (est.), dose: 32.0 mg/kg/injection, schedule: Q07DX005 (ip), vehicle: Klucel (hydroxypropylcellulose) (HPC), evaluated on day 32",130 % of control [9 of 10 alive]
same,T/C,"T/C endpoint: median tumor weight (est.), dose: 64.0 mg/kg/injection, schedule: Q07DX005 (ip), vehicle: Klucel (hydroxypropylcellulose) (HPC), evaluated on day 32",133 % of control
same,T/C,"T/C endpoint: median tumor weight (est.), dose: 128.0 mg/kg/injection, schedule: Q07DX005 (ip), vehicle: Klucel (hydroxypropylcellulose) (HPC), evaluated on day 30",134 % of control
COc1cccc2c1C(=O)c1c(O)c3c(c(O)c1C2=O)C[C@@](O)(C(=O)COC(=O)c1cccnc1)C[C@@H]3OC1CC(N)C(O)C(C)O1 (stereo partly drawn),survivor count,"T/C endpoint: median tumor weight (est.), dose: 4.0 mg/kg/injection, schedule: Q07DX005 (ip), vehicle: saline",6 of 10 on day 30
same,survivor count,"T/C endpoint: median tumor weight (est.), dose: 8.0 mg/kg/injection, schedule: Q07DX005 (ip), vehicle: saline",0 of 10 on day 30
same,survivor count,[2],0 of 10 on day 30
CC(C)(Oc1ccc(-c2cccc3ccccc23)cc1)C(=O)O,survivor count,"T/C endpoint: median tumor weight (est.), dose: 800.0 mg/kg/injection, schedule: Q07DX005 (ip), vehicle: Klucel (hydroxypropylcellulose) (HPC)",3 of 10 on day 30
CC(=O)Oc1[nH]c(=O)c2cccc3c2c1CCC3,T/C,"T/C endpoint: median tumor weight change, dose: 900.0 mg/kg/injection, schedule: Q01DX001 (ip), vehicle: saline with Tween-80, evaluated on day 32",128 % of control
same,survivor count,"T/C endpoint: median tumor weight change, dose: 3600.0 mg/kg/injection, schedule: Q01DX001 (ip), vehicle: saline with Tween-80",6 of 10 on day 32
C=C(C)C(=O)OC1C/C(CO)=C\C(O)C/C(C)=C/C2OC(=O)C(=C)C21 (stereo not drawn),survivor count,"T/C endpoint: median tumor weight change, dose: 200.0 mg/kg/injection, schedule: Q01DX001 (ip), vehicle: saline + alcohol",4 of 10 on day 32
Cc1cc(O)c2c(c1O)C(=O)C13C(=C2O)C(=O)C2C(O)C1C1C(O)C3C(=O)C3=C(O)c4c(O)cc(C)c(O)c4C(=O)C321 (stereo not drawn),survivor count,"T/C endpoint: median tumor weight change, dose: 62.5 mg/kg/injection, schedule: Q01DX001 (ip), vehicle: saline with Tween-80",4 of 10 on day 31
same,survivor count,"T/C endpoint: median tumor weight change, dose: 125.0 mg/kg/injection, schedule: Q01DX001 (ip), vehicle: saline with Tween-80",4 of 10 on day 31
same,survivor count,"T/C endpoint: median tumor weight change, dose: 250.0 mg/kg/injection, schedule: Q01DX001 (ip), vehicle: saline with Tween-80",0 of 10 on day 31
Brc1ccc(C[N+]23CN4CN(CN(C4)C2)C3)cc1,T/C,"T/C endpoint: median tumor weight (est.), dose: 12.5 mg/kg/injection, schedule: Q07DX005 (ip), vehicle: saline with Tween-80, evaluated on day 30",132 % of control
same,T/C,"T/C endpoint: median tumor weight (est.), dose: 200.0 mg/kg/injection, schedule: Q07DX005 (ip), vehicle: saline with Tween-80, evaluated on day 30",138 % of control [8 of 10 alive]
CCC(C)Nc1ccc(N)cc1 (stereo not drawn),T/C,"T/C endpoint: median tumor weight change, dose: 6.0 mg/kg/injection, schedule: Q01DX001 (ip), vehicle: Klucel (hydroxypropylcellulose) (HPC), evaluated on day 24",127 % of control
S=P(N1CC1)(N1CC1)N1CC1,survivor count,[2],6 of 10 on day 30
C/C=C(\C)c1cc(=O)c2c(C)cc3c(c2o1)C(=O)c1c(O)c(C2CC(C)(N(C)C)C(OC(C)=O)C(C)O2)cc(C2CC(N(C)C)C(O)C(C)O2)c1C3=O (stereo not drawn),survivor count,"T/C endpoint: median tumor weight (est.), dose: 1.25 mg/kg/injection, schedule: Q07DX005 (ip), vehicle: saline",4 of 10 on day 30
same,survivor count,"T/C endpoint: median tumor weight (est.), dose: 2.5 mg/kg/injection, schedule: Q07DX005 (ip), vehicle: saline",2 of 10 on day 30
same,survivor count,"T/C endpoint: median tumor weight (est.), dose: 5.0 mg/kg/injection, schedule: Q07DX005 (ip), vehicle: saline",0 of 10 on day 30
CN1CCN(Cc2nc3cccc4c3c([n+]2[O-])-c2ccccc2-4)CC1,survivor count,"T/C endpoint: median tumor weight (est.), dose: 400.0 mg/kg/injection, schedule: Q07DX005 (ip), vehicle: saline with Tween-80",0 of 10 on day 30
CN(C)CCN1C(=O)c2cccc3cc([N+](=O)[O-])cc(c23)C1=O,survivor count,"T/C endpoint: median tumor weight change, dose: 60.0 mg/kg/injection, schedule: Q01DX001 (ip), vehicle: saline with Tween-80",4 of 10 on day 32
same,survivor count,"T/C endpoint: median tumor weight change, dose: 120.0 mg/kg/injection, schedule: Q01DX001 (ip), vehicle: saline with Tween-80",0 of 10 on day 32
